Test results: PubChem BioAssay (NCATS)
The inconclusive results got no clear call from the source; some entries with a clear call stand among them for comparison. A potency beside an inconclusive call is a rough fit, not a confirmed value. Activity calls are given as the source filed them. The call rests on the fitted dose curve; in most records, active means well fitted cell-killing curve with a large enough effect; inconclusive means small, poorly fitted or top-dose-only effect, or effect the other way; inactive means no such curve, though single readings can be large or run the other way.

How the values were obtained:
[1] = Quantitative High-Throughput drug screen in 47 multiple myeloma cell lines against the NCATS MIPE library collection: L363_DSMZ cell viability assay (AID 1918984); conditions: L363 myeloma viability, CellTiter-Glo ATP luminescence, 48 h; viability (% of control): at 45.8 µM (top of the series); further: nearly all actives have a fitted effect of over 40% in size
Summary of the method: (§1)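 ATP-based luminescence (CellTiter-Glo, 5 min RT incubation) quantified surviving cells following two days' treatment with MIPE 4.0 agents at 37 °C, 5% CO2.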

[2] = Quantitative High-Throughput drug screen in 47 multiple myeloma cell lines against the NCATS MIPE library collection: KMS34_JCRB cell viability assay (AID 1918985); conditions: KMS34 myeloma viability, CellTiter-Glo ATP luminescence, 48 h; viability, percent of control: at 45.8 µM (top of the series); further: nearly all actives have a fitted effect of over 40% in size;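 on viability, percent of control: 100% = DMSO-only wells and 0% = media-only wells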
Summary of the method: as §1

[3] = Quantitative High-Throughput drug screen in 47 multiple myeloma cell lines against the NCATS MIPE library collection: OCIMY7_PLB cell viability assay (AID 1918987); conditions: OCI-MY7 myeloma viability, CellTiter-Glo ATP, 48 h; viability (% of DMSO): at 45.8 µM (top of the series); further: nearly all actives have a fitted effect of over 65% in size
Summary of the method: as §1

[4] = Quantitative High-Throughput drug screen in 47 multiple myeloma cell lines against the NCATS MIPE library collection: OCIMY5_PLB cell viability assay (AID 1918988); conditions: OCI-MY5 myeloma viability, ATP luminescence, 48 h; viability, % of control: at 45.8 µM (top of the series); further: nearly all actives have a fitted effect of over 65% in size
Summary of the method: as §1

[5] = Quantitative High-Throughput drug screen in 47 multiple myeloma cell lines against the NCATS MIPE library collection: OPM1_PLB cell viability assay (AID 1918989); further: nearly all actives have a fitted effect of over 40% in size;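 on viability (% of control): 100% = DMSO-only wells and 0% = media-only wells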
Summary of the method: as §1

[6] = Quantitative High-Throughput drug screen in 47 multiple myeloma cell lines against the NCATS MIPE library collection: SKMM1_PLB cell viability assay (AID 1919863); conditions: SKMM1 myeloma viability, CellTiter-Glo ATP, 48 h; viability: hits give low values; further: nearly all actives have a fitted effect of over 35% in size
Summary of the method: as §1

[7] = Quantitative High-Throughput drug screen in 47 multiple myeloma cell lines against the NCATS MIPE library collection: U266_ATCC cell viability assay (AID 1919864); further: nearly all actives have a fitted effect of over 35% in size
Summary of the method: as §1

[8] = Quantitative High-Throughput drug screen in 47 multiple myeloma cell lines against the NCATS MIPE library collection: XG1_PLB cell viability assay (AID 1919866); further: nearly all actives have a fitted effect of over 35% in size
Summary of the method: as §1

[9] = Quantitative High-Throughput drug screen in 47 multiple myeloma cell lines against the NCATS MIPE library collection: XG6_PLB cell viability assay (AID 1919865); conditions: XG6 myeloma viability, CellTiter-Glo ATP luminescence, 48 h; viability (% of control): at 45.8 µM (top of the series); further: nearly all actives have a fitted effect of over 40% in size;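 on viability (% of control): 100% = DMSO-only wells and 0% = media-only wells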
Summary of the method: as §1

[10] = Quantitative High-Throughput drug screen in 47 multiple myeloma cell lines against the NCATS MIPE library collection: VP6_DJ cell viability assay (AID 1919867); conditions: ATP luminescence, 48 h; viability (% of DMSO): at 45.8 µM (top of the series); further: nearly all actives have a fitted effect of over 40% in size;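 on viability (% of DMSO): 100% = DMSO-only wells and 0% = wells with media alone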
Summary of the method: as §1
Potency means the concentration at half of the fitted maximal effect.

Row | Structure (SMILES) | Potency [1] | Potency [2] | Potency [3] | Potency [4] | Potency [5] | Potency [6] | Potency [7] | Potency [8] | Potency [9] | Potency [10] | viability [6]
1 | CN1[C@H]2CC[C@H]1CC(OC(=O)c1c[nH]c3ccccc13)C2 (some centres undefined) | inconclusive: 4.2 nM [cytotoxic, full curve, poor fit] | inactive | inconclusive: 4180 nM [cytotoxic, full curve, poor fit] | inconclusive: 5260 nM [cytotoxic, full curve, poor fit] | inconclusive: 16600 nM [cytotoxic, partial curve, poor fit] | inconclusive: 6620 nM [cytotoxic, full curve, poor fit] | active: 10500 nM | inconclusive: 10500 nM [cytotoxic, full curve] |  |  | 
2 | O=c1[nH]c(=O)n([C@H]2C[C@@H](O)[C@@H](CO)O2)cc1C=CBr | inactive | inactive | inconclusive: 7430 nM [rising, partial curve, poor fit] | inconclusive: 8330 nM [rising, full curve, poor fit] | active: 105 nM | inconclusive: 52.6 nM [rising, full curve, poor fit] | inactive |  | inactive | inactive | 
3 | COc1cc([C@@H]2c3cc4c(cc3[C@H](O)[C@H]3COC(=O)[C@H]23)OCO4)cc(OC)c1OC | inactive | inactive | inactive | inconclusive: 3 nM [cytotoxic, full curve] | inactive |  | inactive | inactive | inactive | inconclusive: 132 nM [cytotoxic, full curve] | inactive: 65.8%
4 | COc1cc2nc(N3CCN(C(=O)c4ccco4)CC3)nc(N)c2cc1OC | active: 7430 nM | inconclusive: 33200 nM [cytotoxic, single point] | active: 10500 nM | inconclusive: 11800 nM [cytotoxic, full curve, poor fit] |  |  |  |  |  |  | 
5 | O=C(C=Cc1ccc(/C=C/C(=O)Nc2ccc(C3=NCCN3)cc2)cc1)Nc1ccc(C2=NCCN2)cc1 | inconclusive: 1 nM [cytotoxic] | inactive | inconclusive: 5.9 nM [rising, full curve, poor fit] | inconclusive: 11.8 nM [cytotoxic, full curve, poor fit] | inconclusive: 1050 nM [cytotoxic, full curve, poor fit] |  | inconclusive: 372 nM [rising, full curve, poor fit] |  | inactive | inactive | inactive: 118%
6 | C#CCN[C@@H]1CCc2ccccc21 | inactive | inactive | inconclusive: 3720 nM [cytotoxic, full curve, poor fit] | inconclusive: 372 nM [cytotoxic, full curve, poor fit] | inactive | inconclusive: 16600 nM [cytotoxic, partial curve] | inactive |  | inconclusive: 743 nM [cytotoxic, full curve, poor fit] | inconclusive: 11800 nM [cytotoxic, single point] | 
7 | COc1cc(O)c2c(c1)C(=O)c1cc(C)cc(O)c1C2=O | inactive | inconclusive: 0.7 nM | inconclusive: 1020 nM [cytotoxic, full curve, poor fit] | inconclusive: 457 nM [cytotoxic, full curve, poor fit] | inconclusive: 3630 nM [cytotoxic, single point] |  | inconclusive: 1290 nM [cytotoxic, full curve, poor fit] | inactive | inactive | inconclusive: 2290 nM [cytotoxic, full curve, poor fit] | inactive: 131%
